According to paper PMC6688661:
These are yes or no findings as the source states them, for the method shown. Binding can be weak; no strength is given. Tags and fused reporters may be left off the sequences shown.

Target: T1, Schizosaccharomyces pombe Ubc7 (S. pombe) (UniProt O00102)
T1 sequence: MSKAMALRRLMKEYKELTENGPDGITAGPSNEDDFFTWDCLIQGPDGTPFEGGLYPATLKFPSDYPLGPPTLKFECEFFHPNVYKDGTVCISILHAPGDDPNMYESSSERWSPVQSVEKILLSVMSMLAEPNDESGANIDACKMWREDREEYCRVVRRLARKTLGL
Assay: crystal structure; Ubc7 and U7BR mixed at 16 µM each, complex isolated by size-exclusion chromatography; hanging drop, 6.6 mg/ml complex, 100 mM Tris pH 8.0, 200 mM MgCl2, 30% PEG 4000, 18°C; 1.7 Å, one complex in the asymmetric unit; both purified

binding: binds
Substance: Schizosaccharomyces pombe Cue4 Ubc7-binding region (U7BR), residues 152-215 (S. pombe) (domain or fragment)
